{"source": "patent US20050222110A1", "about": "“Use of loteprednol etabonate for the treatment of dry eye” (priority 2004, published 2005)", "origin": "cited, not measured here", "test_system": "keratoconjunctivitis sicca", "settings": "nonpreserved formulation; previous clinical studies; cited from earlier work", "note": "For at least one compound, name, drawing or mass did not settle the structure."}
{"smiles": "C[C@H]1C[C@@H]2[C@H]([C@@H](O)C[C@@]3(C)[C@H]2CC[C@]3(O)C(=O)CO)[C@@]2(C)C=CC(=O)C=C12", "note": "[methylprednisolone]", "values": [{"measurement": "Clinical effect on keratoconjunctivitis sicca compared to the current study", "value": "greater clinical effect"}]}
